These are yes or no findings as the source states them, for the method shown. In cells and extracts the contact can be indirect. Here binding means that the protein was enriched with, or labelled near, the bait; the list need not be complete. Sequences can lack the tags named with a protein.
Target: T1, GFP-tagged mLgl2 (UniProt Q3TJ91)
T1 sequence: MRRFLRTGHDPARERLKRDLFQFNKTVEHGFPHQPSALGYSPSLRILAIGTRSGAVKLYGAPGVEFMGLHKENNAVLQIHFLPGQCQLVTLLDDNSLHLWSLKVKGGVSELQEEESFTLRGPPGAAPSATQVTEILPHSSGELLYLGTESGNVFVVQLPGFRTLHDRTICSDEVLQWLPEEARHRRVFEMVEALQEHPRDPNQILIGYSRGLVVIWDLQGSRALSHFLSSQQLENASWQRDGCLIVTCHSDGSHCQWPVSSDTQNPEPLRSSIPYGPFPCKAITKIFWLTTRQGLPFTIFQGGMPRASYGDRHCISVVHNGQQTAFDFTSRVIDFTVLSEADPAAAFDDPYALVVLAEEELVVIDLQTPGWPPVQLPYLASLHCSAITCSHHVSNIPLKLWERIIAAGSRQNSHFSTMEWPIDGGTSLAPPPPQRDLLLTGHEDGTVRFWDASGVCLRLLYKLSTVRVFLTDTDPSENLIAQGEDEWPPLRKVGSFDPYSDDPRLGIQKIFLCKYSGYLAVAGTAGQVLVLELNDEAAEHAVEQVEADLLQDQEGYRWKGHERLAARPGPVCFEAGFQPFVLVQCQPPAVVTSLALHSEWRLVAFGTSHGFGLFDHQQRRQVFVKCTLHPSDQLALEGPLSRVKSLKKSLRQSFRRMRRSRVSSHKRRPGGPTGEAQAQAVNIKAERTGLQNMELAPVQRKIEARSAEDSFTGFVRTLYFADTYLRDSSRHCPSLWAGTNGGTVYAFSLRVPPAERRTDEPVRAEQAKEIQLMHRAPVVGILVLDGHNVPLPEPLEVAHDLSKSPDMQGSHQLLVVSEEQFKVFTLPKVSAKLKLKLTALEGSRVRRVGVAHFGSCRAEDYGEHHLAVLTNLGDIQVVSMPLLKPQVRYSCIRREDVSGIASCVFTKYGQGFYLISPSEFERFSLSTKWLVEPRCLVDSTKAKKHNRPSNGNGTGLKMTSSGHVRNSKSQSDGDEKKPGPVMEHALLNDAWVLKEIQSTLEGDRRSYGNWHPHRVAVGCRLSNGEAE
Experiment: affinity purification with mass spectrometry; lysates of parental or GFP-mLgl2-expressing MCF-7 cells, immunoprecipitation with control mouse IgG or anti-GFP antibody, SDS-PAGE and SYPRO Ruby staining; band excised, trypsin digest, LC-MS/MS

By UniProt entry, the sequences of proteins in these tests, tags left out.
UniProt Q9Y4B6: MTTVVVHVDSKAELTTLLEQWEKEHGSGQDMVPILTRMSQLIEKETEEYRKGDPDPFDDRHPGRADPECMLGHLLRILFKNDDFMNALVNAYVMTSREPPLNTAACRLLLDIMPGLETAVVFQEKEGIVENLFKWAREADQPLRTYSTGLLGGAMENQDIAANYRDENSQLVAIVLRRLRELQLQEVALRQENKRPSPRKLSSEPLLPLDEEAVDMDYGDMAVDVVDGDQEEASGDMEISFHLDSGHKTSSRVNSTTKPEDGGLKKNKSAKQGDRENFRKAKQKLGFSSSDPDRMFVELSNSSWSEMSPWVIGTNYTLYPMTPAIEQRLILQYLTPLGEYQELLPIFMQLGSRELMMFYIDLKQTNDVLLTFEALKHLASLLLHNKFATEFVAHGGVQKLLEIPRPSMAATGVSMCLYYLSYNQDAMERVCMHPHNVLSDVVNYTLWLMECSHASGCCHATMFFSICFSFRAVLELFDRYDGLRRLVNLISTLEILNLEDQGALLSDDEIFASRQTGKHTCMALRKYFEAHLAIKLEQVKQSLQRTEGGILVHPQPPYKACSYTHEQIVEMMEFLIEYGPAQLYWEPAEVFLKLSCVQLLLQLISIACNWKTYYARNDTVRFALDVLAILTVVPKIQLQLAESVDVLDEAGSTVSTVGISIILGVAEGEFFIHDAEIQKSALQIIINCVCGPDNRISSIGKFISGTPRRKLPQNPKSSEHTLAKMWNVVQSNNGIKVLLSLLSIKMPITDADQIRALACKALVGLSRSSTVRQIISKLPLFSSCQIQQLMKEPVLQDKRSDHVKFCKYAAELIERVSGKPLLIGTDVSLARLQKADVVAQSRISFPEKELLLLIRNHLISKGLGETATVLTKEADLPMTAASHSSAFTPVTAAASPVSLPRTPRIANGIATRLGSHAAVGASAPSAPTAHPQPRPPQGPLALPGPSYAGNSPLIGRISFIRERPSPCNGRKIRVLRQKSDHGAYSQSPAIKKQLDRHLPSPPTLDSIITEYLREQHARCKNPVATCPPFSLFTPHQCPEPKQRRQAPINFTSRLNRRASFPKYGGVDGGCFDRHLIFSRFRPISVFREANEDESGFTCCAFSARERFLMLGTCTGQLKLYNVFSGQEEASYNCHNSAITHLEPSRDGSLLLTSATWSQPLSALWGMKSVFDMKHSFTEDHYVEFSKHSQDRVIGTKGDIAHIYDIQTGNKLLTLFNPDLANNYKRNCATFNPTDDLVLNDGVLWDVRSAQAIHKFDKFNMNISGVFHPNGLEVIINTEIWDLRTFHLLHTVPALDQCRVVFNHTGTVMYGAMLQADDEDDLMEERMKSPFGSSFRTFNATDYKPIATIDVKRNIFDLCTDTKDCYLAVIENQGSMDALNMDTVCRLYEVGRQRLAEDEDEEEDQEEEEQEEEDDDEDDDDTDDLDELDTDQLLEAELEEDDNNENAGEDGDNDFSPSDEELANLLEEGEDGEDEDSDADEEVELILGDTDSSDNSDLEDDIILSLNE

For “VprBP (viral protein R-binding protein), endogenous in MCF-7 cells (from UniProt Q9Y4B6 1-1507)”, the binding was “binds”.

Reference: article PMC2903597
